Test results from paper PMC9170289.
No constants are given. Whether binding was seen depends on the method and setting. Some binding calls cover weakened binding; strength is not graded here.

By UniProt entry, the sequences of proteins in these tests, tags left out.
UniProt P22147: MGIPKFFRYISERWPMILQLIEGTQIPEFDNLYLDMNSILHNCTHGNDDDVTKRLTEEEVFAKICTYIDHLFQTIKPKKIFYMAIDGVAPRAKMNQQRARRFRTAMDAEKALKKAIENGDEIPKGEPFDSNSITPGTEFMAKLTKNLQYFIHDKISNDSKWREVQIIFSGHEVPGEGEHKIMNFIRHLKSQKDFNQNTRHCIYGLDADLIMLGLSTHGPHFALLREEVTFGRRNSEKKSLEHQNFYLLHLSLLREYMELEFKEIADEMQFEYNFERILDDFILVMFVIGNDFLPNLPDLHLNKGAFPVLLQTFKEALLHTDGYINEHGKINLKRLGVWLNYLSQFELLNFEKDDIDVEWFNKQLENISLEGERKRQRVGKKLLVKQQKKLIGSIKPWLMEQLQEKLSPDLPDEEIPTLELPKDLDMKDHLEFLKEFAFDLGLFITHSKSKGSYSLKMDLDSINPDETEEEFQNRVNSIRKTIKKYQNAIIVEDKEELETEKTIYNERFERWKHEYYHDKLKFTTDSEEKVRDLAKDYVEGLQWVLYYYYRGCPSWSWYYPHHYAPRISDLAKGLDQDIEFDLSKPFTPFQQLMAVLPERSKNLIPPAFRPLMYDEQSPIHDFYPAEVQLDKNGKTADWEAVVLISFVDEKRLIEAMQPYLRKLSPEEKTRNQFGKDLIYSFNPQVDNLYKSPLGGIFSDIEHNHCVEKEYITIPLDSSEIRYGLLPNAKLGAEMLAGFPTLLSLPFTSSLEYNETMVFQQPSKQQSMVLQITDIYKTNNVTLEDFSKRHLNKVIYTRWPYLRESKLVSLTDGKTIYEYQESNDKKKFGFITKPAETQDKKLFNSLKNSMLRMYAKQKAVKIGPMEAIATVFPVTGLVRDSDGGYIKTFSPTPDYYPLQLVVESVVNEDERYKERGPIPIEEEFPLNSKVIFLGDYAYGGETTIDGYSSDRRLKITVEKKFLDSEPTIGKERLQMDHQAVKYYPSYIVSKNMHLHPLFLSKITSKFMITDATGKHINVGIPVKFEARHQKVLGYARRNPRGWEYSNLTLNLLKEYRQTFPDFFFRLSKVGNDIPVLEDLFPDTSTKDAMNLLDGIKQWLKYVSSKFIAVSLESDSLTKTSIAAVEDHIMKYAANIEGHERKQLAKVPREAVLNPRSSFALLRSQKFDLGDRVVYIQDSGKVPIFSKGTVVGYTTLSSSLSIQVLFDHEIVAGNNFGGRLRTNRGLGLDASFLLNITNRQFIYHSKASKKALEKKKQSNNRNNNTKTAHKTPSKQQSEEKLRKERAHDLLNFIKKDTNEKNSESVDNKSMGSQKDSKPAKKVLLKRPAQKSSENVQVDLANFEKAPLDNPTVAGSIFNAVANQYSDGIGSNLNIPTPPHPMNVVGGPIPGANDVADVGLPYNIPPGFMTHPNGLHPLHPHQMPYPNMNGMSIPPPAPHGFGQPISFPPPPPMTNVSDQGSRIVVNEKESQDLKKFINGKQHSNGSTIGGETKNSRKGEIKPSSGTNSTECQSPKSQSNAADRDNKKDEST

How the values were obtained:
[1] = molecular target: T1, Dcp2 internal fragment aa 316–575 (minimal Xrn1-binding region) (S. cerevisiae) (UniProt P53550); test: two-hybrid; GAL4(DB) fusion and GAL4(AD) fusion cotransformed into the wild-type tester strain GGY1::171; X-Gal colony colour on SSX plates, 30°C; pairs said to be unaffected were also tested in upf1Δ, pat1Δ, scd6Δ, edc3Δ or dcp2-N245 derivatives
T1 sequence: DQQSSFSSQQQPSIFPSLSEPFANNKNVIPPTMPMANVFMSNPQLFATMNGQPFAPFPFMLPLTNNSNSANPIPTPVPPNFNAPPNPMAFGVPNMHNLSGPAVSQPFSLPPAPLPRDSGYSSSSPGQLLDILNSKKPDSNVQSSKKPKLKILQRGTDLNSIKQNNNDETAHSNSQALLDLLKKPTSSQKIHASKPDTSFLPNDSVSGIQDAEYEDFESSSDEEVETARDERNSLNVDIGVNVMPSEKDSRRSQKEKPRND

[2] = molecular target: T2, Pat1 (S. cerevisiae) (UniProt P25644); test: as above
T2 sequence: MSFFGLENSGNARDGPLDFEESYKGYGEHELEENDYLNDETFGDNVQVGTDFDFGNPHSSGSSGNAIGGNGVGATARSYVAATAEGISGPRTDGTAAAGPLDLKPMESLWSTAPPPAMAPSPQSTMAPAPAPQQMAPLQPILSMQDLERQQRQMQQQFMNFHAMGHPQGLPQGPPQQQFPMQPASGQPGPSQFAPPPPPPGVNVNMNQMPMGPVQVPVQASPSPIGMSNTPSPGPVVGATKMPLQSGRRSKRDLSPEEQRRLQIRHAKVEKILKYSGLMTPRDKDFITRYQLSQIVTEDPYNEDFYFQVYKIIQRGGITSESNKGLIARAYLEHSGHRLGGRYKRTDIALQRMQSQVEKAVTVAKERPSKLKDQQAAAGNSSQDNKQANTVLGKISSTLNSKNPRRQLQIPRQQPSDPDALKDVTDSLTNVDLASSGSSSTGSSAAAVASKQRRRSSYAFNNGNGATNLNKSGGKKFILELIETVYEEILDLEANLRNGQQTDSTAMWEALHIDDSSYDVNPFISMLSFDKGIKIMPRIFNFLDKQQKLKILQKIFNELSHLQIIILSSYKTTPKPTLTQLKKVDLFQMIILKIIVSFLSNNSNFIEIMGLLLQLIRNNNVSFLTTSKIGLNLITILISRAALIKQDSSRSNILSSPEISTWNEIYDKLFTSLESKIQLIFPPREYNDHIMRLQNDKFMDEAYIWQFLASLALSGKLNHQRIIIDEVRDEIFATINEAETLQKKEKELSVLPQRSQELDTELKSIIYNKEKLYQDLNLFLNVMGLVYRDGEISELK

## Xrn1 (from UniProt P22147 1-1528)
[1]
  binding: binds
[2]
  binding: binds
